Experimental data taken from article doi:10.1101/2025.10.13.682015.

Biological target: T1, mimivirus L323, endogenously tagged with C-terminal 3xHA (Acanthamoeba polyphaga mimivirus)
T1 sequence: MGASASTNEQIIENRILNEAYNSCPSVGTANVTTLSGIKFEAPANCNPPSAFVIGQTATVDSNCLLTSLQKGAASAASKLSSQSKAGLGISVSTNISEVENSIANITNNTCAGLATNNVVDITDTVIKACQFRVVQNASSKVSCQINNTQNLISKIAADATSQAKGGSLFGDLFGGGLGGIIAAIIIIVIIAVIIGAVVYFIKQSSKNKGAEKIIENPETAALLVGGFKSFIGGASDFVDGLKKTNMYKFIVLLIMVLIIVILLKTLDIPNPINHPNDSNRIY
Assay: affinity purification with mass spectrometry

Substance | binding
mimivirus R486 (from UniProt Q5UQG0) | binds
mimivirus L65 (from UniProt Q5UPE0) | binds
mimivirus L775 (from UniProt Q5UPR5) | binds

These are yes or no findings as the source states them, for the method shown. Binding seen in cells or lysates may run through a third protein. These calls come from enrichment with a bait or labelling near it, and not all partners need be listed. Sequences can lack the tags named with a protein.
